Data: article PMC12006502
These are yes or no findings as the source states them, for the method shown. Binding seen in cells or lysates may run through a third protein. Some binding calls cover weakened binding; strength is not graded here. Each block holds one molecule with its values, some of them ahead of it.

Chains of the proteins cited; added tags and fusions are not shown.
UniProt P01106: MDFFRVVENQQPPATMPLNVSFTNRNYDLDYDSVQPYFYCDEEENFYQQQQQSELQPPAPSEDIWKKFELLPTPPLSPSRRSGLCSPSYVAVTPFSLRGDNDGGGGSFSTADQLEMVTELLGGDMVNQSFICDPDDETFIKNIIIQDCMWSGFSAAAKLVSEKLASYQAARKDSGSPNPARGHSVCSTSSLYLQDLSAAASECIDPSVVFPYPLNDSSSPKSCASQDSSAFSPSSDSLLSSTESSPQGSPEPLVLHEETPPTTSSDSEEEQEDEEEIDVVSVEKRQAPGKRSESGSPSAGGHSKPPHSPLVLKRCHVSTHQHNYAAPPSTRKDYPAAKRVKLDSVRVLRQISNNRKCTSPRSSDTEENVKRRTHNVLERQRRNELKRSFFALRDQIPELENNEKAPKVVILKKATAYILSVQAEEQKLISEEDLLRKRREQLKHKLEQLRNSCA
UniProt Q92831: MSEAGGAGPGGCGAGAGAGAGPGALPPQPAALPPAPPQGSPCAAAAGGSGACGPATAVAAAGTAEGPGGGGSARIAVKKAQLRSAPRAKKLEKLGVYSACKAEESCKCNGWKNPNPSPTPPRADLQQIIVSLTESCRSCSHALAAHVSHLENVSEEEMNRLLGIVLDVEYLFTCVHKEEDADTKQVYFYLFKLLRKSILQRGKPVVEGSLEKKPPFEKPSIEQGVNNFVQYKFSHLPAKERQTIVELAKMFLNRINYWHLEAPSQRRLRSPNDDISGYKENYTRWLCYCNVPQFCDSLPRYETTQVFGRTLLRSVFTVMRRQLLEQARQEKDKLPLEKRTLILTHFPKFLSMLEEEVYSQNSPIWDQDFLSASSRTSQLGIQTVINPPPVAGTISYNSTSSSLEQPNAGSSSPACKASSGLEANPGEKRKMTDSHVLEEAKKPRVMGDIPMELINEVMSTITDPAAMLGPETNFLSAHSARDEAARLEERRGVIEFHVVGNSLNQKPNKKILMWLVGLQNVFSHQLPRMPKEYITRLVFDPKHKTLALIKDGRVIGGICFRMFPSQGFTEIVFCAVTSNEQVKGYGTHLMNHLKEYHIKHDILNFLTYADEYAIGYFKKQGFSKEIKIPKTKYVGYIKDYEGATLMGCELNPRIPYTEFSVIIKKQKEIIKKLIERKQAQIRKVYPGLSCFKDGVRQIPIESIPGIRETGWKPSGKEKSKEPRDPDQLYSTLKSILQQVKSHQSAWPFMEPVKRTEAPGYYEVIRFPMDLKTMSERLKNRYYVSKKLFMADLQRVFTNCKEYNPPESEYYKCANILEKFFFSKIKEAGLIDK

Columns and labels:
[1] = biological target: EGFP-TACC3 TACC domain, amino acids 639-838 (human) (UniProt Q9Y6A5); assay: co-IP; HEK293T cells co-transfected with EGFP-tagged TACC3 constructs and Flag-tagged c-Myc; lysates IP with anti-GFP; IP buffer 150 mM NaCl, 5 mM EDTA, 0.5% NP-40, 50 mM Tris-HCl pH 8.0; immunoblot
[2] = biological target: c-Myc, endogenous in bladder cancer cells (human (endogenous in TCCSUP and 5637)) (UniProt P01106); assay: co-IP; MYC with PCAF and SIRT1 in cells with TACC3 overexpression or depletion, also with SIRT1 overexpression or knockdown; IP buffer 150 mM NaCl, 5 mM EDTA, 0.5% NP-40, 50 mM Tris-HCl pH 8.0
[3] = biological target: EGFP-TACC3 (Transforming Acidic Coiled-Coil Containing Protein 3), full length, amino acids 1-838 (human) (UniProt Q9Y6A5); assay: co-IP; 293T cells expressing EGFP-TACC3, endogenous c-Myc; IP buffer 150 mM NaCl, 5 mM EDTA, 0.5% NP-40, 50 mM Tris-HCl pH 8.0; overnight at 4 °C; immunoblot
[4] = biological target: c-Myc, endogenous in bladder cancer cells (human (endogenous in TCCSUP and 5637)) (UniProt P01106); assay: co-IP; endogenous proteins in TCCSUP and 5637 cells; IP with c-Myc antibody, IgG as negative control; IP buffer 150 mM NaCl, 5 mM EDTA, 0.5% NP-40, 50 mM Tris-HCl pH 8.0
[5] = biological target: c-Myc, endogenous in bladder cancer cells (human (endogenous in TCCSUP and 5637)), P01106; assay: co-IP; MYC with PCAF and SIRT1 in cells with TACC3 overexpression or depletion, also with SIRT1 overexpression or knockdown; IP buffer 150 mM NaCl, 5 mM EDTA, 0.5% NP-40, 50 mM Tris-HCl pH 8.0; conditions: remark: other sources report otherwise

Molecule: PCAF (histone acetyltransferase KAT2B) (from UniProt Q92831 1-832) (enzyme)
binding [2]: binds

B1: SIRT1, Q96EB6 1-747 (enzyme)
chain: MADEAALALQPGGSPSAAGADREAASSPAGEPLRKRPRRDGPGLERSPGEPGGAAPEREVPAAARGCPGAAAAALWREAEAEAAAAGGEQEAQATAAAGEGDNGPGLQGPSREPPLADNLYDEDDDDEGEEEEEAAAAAIGYRDNLLFGDEIITNGFHSCESDEEDRASHASSSDWTPRPRIGPYTFVQQHLMIGTDPRTILKDLLPETIPPPELDDMTLWQIVINILSEPPKRKKRKDINTIEDAVKLLQECKKIIVLTGAGVSVSCGIPDFRSRDGIYARLAVDFPDLPDPQAMFDIEYFRKDPRPFFKFAKEIYPGQFQPSLCHKFIALSDKEGKLLRNYTQNIDTLEQVAGIQRIIQCHGSFATASCLICKYKVDCEAVRGDIFNQVVPRCPRCPADEPLAIMKPEIVFFGENLPEQFHRAMKYDKDEVDLLIVIGSSLKVRPVALIPSSIPHEVPQILINREPLPHLHFDVELLGDCDVIINELCHRLGGEYAKLCCNPVKLSEITEKPPRTQKELAYLSELPPTPLHVSEDSSSPERTSPPDSSVIVTLLDQAAKSNDDLDVSESKGCMEEKPQEVQTSRNVESIAEQMENPDLKNVGSSTGEKNERTSVAGTVRKCWPNRVAKEQISRRLDGNQYLFLPPNRYIFHGAEVYSDSEDDVLSSSSCGSNSDSGTCQSPSLEEPMEDESEIEEFYNGLEDEPDVPERAGGAGFGTDGDDQEAINEAISVKQEVTDMNYPSNKS
binding [5]: binds

Results, then the molecule that gave them:

binding [1]: binds
Molecule: Flag-tagged c-Myc (from UniProt P01106 1-454)

binding [3]: binds
Molecule: c-Myc, endogenous in 293T cells (from UniProt P01106 1-454)

binding [4]: binds
Molecule: TACC3, endogenous in bladder cancer cells (from UniProt Q9Y6A5 1-838)
